The list shows a part of the results.

Sequences of proteins named here, by UniProt entry; tags and fusion partners are left off.
UniProt Q0JBA9, entry or part of it: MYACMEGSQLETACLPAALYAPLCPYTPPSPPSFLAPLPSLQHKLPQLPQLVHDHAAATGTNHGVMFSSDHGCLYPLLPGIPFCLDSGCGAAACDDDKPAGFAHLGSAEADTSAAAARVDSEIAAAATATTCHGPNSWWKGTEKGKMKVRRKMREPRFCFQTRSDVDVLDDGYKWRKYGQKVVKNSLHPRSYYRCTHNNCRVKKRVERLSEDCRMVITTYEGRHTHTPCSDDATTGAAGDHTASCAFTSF

This assay addresses OsWRKY34 (Oryza sativa, UniProt Q0JBA9 1-250). The experiment in a line: protein-binding microarray (RPBM); PBS, 2% BSA, 51.3 ng/ul salmon testes DNA, 50 uM zinc acetate, 200 nM TF, 25 C, 1 h; high values mean tight binding. Conditions: protein: recombinant; tags: N-terminal polyhistidine and DsRed monomer fusion (pET32a); label: CyDye5-dUTP incorporated in the synthesized complementary strand; 3' TTTTT single-stranded linker to array surface; dsDNA, one strand shown. The gist of the method:
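The binding signal is fluorescence intensity per feature, in arbitrary units, read on an Axon 4000B scanner. Polyhistidine- and DsRed-tagged transcription factors (N-terminal fusions) from E. coli BL21-CodonPlus were purified on Ni–NTA and applied at 200 nM for 1 h at 25 °C to a double-stranded, BSA-blocked custom Agilent array in buffer with 50 µM zinc acetate.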
As for “TTATATGTCCATTGCATCTGATAACACTAGCCATGTATGCCGGAGTCACCTAGTGCAG”, the binding signal is 10400 fluorescence intensity (a.u.).
Turning to “AGTACACCACTCCATTTCTCTCTCTTTCTCTCGCTTTCTTCGGAGTCACCTAGTGCAG”, the binding signal was 12500 fluorescence intensity (a.u.).
For the sequence “TTTTTTCTCACATGTTTGACCATTCGTCTTATTCAAAAAACGGAGTCACCTAGTGCAG”, the binding signal is 8550 fluorescence intensity (a.u.).
As to “AGCCCAACTTGCTATCTGCCATTTTTGCCAACTTGCTACCCGGAGTCACCTAGTGCAG”, the binding signal is 10800 fluorescence intensity (a.u.).
For “TGTCTTCTTTCTTTTCTGCTCTTTTCCCCGCGGCCATCCCCGGAGTCACCTAGTGCAG” the value was 9870 fluorescence intensity (a.u.); for “AGCTACCTCATTTATTAATACCTTTTTCTTTTCTTTGTTGCGGAGTCACCTAGTGCAG”, 9640 fluorescence intensity (a.u.).
Regarding “ATCCATACTGTTTTCAACCCTTAGGCTATATTCGATTAATCGGAGTCACCTAGTGCAG”, the binding signal was 8990 fluorescence intensity (a.u.).
Regarding “TCACGCTTGATTGTTCTATTAGGCCTGTTGTTATACAGATCGGAGTCACCTAGTGCAG”, the binding signal was 8150 fluorescence intensity (a.u.).
For “GAAAAGATCGCCCCTTATCCGGAAAACCCGCTCTCACACCCGGAGTCACCTAGTGCAG” the value was 8760 fluorescence intensity (a.u.).
Regarding “GATTCATACAATTGTATGGTGTTAACATGGCGATTTTTTGCGGAGTCACCTAGTGCAG”, the binding signal was 9120 fluorescence intensity (a.u.).
With “TCTCCTAGCCAATTATACGTTTTTTGTGTGTCCTGTGACACGGAGTCACCTAGTGCAG”, the binding signal was 8540 fluorescence intensity (a.u.).
On to “TTCTTCTTGTCTCATCTGCACCATTGACAAGCAATATCATCGGAGTCACCTAGTGCAG”, for which the binding signal is 8580 fluorescence intensity (a.u.).
For “CAGGTCCATATTTCACCAATTCATTCATCAGCTGACAATCCGGAGTCACCTAGTGCAG” the value was 9890 fluorescence intensity (a.u.).
For the sequence “CTGCTGCACTTCTCTCTCTCTCCTCGTCCTACAGGCTACACGGAGTCACCTAGTGCAG”, the binding signal is 9580 fluorescence intensity (a.u.).
As for “GGCGGCGACCTGATCTCTCTGCGTTTGTGTGCTCTGTTTCCGGAGTCACCTAGTGCAG”, the figure is 11800 fluorescence intensity (a.u.); as for “CTAGACTGACTCGGTTTTTGTCAAAGTGTTCTGTAATTGCCGGAGTCACCTAGTGCAG”, 8780 fluorescence intensity (a.u.).
With “CTCAACCATCGCCTCGGCCGCGCTGCCACGCCACTATAATCGGAGTCACCTAGTGCAG”, the binding signal is 9180 fluorescence intensity (a.u.).
Consider “GACGTATCATAGTCTCTGTTTAGATTTCTAGTACTATGATCGGAGTCACCTAGTGCAG”, for which the binding signal was 9340 fluorescence intensity (a.u.).
With “ACGGAAATATTCTACGCACGAAAGCCGCACACGTGTTTCCCGGAGTCACCTAGTGCAG”, the binding signal is 8170 fluorescence intensity (a.u.).
“CACACCTCGCCTCCTCCTCGGCTTGGATCTCGCCGCATCACGGAGTCACCTAGTGCAG”: the binding signal was 8210 fluorescence intensity (a.u.).
“ATCGGCGCCGTCGACCGCGACCACCCTGCCGCCGAGCGCCCGGAGTCACCTAGTGCAG”: the binding signal is 10300 fluorescence intensity (a.u.).
For “GCTATTCTCCCAGTCCCACGCCGCACCGCCCACACGGCGCCGGAGTCACCTAGTGCAG”, the binding signal is 9500 fluorescence intensity (a.u.).
Turning to “TTTTCCATTTAGGCTCTCGGTTTCACTGTACTCCAAATTACGGAGTCACCTAGTGCAG”, the binding signal is 9560 fluorescence intensity (a.u.).
With “GCTATTATCGAGTTGCATGCATCGACCAATTCAACCAAAACGGAGTCACCTAGTGCAG”, the binding signal is 8600 fluorescence intensity (a.u.).
Consider “GAGGACTCCCGTCGCCATCACGCCATCGCCGCTGCCTCCGCGGAGTCACCTAGTGCAG”, for which the binding signal was 10900 fluorescence intensity (a.u.).
On to “TATCGCCGTCGTCTCGCACTGCCTCCATCGGATATCCAGCCGGAGTCACCTAGTGCAG”, for which the binding signal is 8390 fluorescence intensity (a.u.).
“ATCACTGGTTTCTTTCTGGTCCAACCCCACACGGCCATTCCGGAGTCACCTAGTGCAG”: the binding signal is 15800 fluorescence intensity (a.u.).
As to “AGTTTTAAGTTGGACCACTCTTTATCTAATCATTTTAGTTCGGAGTCACCTAGTGCAG”, the binding signal was 8540 fluorescence intensity (a.u.).
Regarding “TTACCCACAATTTTAGGTTCTCATCTGCCACCACATATTTCGGAGTCACCTAGTGCAG”, the binding signal was 8130 fluorescence intensity (a.u.).
As for “GCGCGAGCTCCTCTCGAACTTCCTCAGCTTCGAGGTCTTCCGGAGTCACCTAGTGCAG”, the binding signal was 9210 fluorescence intensity (a.u.).
With “AAAGTGGACTTTTTCCTTGGGTTGACGCTGCATCGAGGCCCGGAGTCACCTAGTGCAG”, the binding signal is 8160 fluorescence intensity (a.u.).
As to “TCTAGGTCTTTTTTCTCATATATTCCCTTCATCCTTAAATCGGAGTCACCTAGTGCAG”, the binding signal is 9600 fluorescence intensity (a.u.).
As for “CGTCATTCTTTCCTTCACGTCGCCACAGCCGTGACATCGTCGGAGTCACCTAGTGCAG”, the figure is 8370 fluorescence intensity (a.u.).
As to “GGCAGCATCAACCGTTACCCGCTTAAATCAACGGCCGAGACGGAGTCACCTAGTGCAG”, the binding signal is 9700 fluorescence intensity (a.u.).
Take “GTCACATACTCGCATTCTATTTACTCATGAATTAAACATTCGGAGTCACCTAGTGCAG”: the binding signal is 9580 fluorescence intensity (a.u.).
As for “GTCAAACGCCACGAGCTTTGACCAGTCAACGGTCAAAGTTCGGAGTCACCTAGTGCAG”, the binding signal was 10600 fluorescence intensity (a.u.).
With “ACGACCCGCCCGCTGCCTCTCATTTTTATTATCATTGCGACGGAGTCACCTAGTGCAG”, the binding signal was 9650 fluorescence intensity (a.u.).
For “GGGCTTATCCGCTTTGCCAGTCGCGGGCTTGGCTTTTTTACGGAGTCACCTAGTGCAG”, the binding signal is 9480 fluorescence intensity (a.u.).
Turning to “CGCCGCCTCGAACCGGACCAACCAACGACGGCTCGCTTCCCGGAGTCACCTAGTGCAG”, the binding signal is 8370 fluorescence intensity (a.u.).
With “CGCGGCGAGGTTGACCCCGCCATCGTCGCCACCGTCCTCGCGGAGTCACCTAGTGCAG”, the binding signal is 8700 fluorescence intensity (a.u.).
Regarding “TGCTCCTAATTCGCCTGATCTGATCTCTGCCTTAGTTACTCGGAGTCACCTAGTGCAG”, the binding signal is 8800 fluorescence intensity (a.u.).
For the sequence “ACAAATAGAGGGACCTAAAGTGAATTTATTCTTTCCGCATCGGAGTCACCTAGTGCAG”, the binding signal was 9640 fluorescence intensity (a.u.).
